In patent US20250051578A1, “RHODAMINE-METHYLENE BLUE DERIVATIVE FLUORESCENT PROBE AND PREPARATION METHOD AND APPLICATION THEREOF” (Henan Polytechnic University, priority 2023, published 2025):

Legend:
[1] = Fluorescence detection of ClO^− by the probe in EtOH:PBS solution (selectivity and titration); conditions: probe 1×10^−5 mol/L, excitation 630 nm
[2] = Fluorescence detection of ATP by the probe in EtOH:PBS solution (selectivity and titration); conditions: probe 1×10^−5 mol/L, excitation 360 nm

Structure (SMILES): CCN(CC)c1ccc2c(c1)Oc1cc(N(CC)CC)ccc1C21c2ccccc2C(=O)N1CCN1CCN(C(=O)N2c3ccc(N(C)C)cc3Sc3cc(N(C)C)ccc32)CC1
- detection limit for the ClO^− ([1]; EtOH:PBS pH=7.4, 5:95 v:v, emission 680 nm): 0.90 nM
- selectivity of fluorescence response among analytes (anions, cations, thiols, ROS) ([1]; analytes 2.5×10^−4 mol/L, FIG. 4A): obvious responses only to the ClO^− and the ATP
- detection limit for the ATP ([2]; EtOH:PBS pH=7.4, 5:95 v:v, emission 590 nm): 23.60 nM
- selectivity of fluorescence response among analytes (phosphates, thiols, nucleotides) ([2]; analytes 1×10^−2 mol/L, FIG. 4B): obvious responses only to the ClO^− and the ATP
